Laboratory results as given in article PMC7810865.
No constants are given. Whether binding was seen depends on the method and setting. In cells and extracts the contact can be indirect. Some results given as binding are weak or reduced against the parent protein; the word gives no strength. Values belong to the molecule of their own block, whether it stands above or below them.

Sequences of proteins named here, by UniProt entry; tags and fusion partners are left off.
UniProt Q02548: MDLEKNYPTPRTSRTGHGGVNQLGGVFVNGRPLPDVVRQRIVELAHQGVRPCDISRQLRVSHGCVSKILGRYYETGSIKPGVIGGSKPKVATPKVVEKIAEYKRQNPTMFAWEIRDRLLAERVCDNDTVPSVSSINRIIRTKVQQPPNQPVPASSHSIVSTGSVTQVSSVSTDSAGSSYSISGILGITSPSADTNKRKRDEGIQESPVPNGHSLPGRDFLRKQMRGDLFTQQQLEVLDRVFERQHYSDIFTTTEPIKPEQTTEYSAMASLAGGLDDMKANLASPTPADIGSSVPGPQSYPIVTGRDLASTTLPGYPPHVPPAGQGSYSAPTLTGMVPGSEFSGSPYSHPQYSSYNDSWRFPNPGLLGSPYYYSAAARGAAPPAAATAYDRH
UniProt Q03164: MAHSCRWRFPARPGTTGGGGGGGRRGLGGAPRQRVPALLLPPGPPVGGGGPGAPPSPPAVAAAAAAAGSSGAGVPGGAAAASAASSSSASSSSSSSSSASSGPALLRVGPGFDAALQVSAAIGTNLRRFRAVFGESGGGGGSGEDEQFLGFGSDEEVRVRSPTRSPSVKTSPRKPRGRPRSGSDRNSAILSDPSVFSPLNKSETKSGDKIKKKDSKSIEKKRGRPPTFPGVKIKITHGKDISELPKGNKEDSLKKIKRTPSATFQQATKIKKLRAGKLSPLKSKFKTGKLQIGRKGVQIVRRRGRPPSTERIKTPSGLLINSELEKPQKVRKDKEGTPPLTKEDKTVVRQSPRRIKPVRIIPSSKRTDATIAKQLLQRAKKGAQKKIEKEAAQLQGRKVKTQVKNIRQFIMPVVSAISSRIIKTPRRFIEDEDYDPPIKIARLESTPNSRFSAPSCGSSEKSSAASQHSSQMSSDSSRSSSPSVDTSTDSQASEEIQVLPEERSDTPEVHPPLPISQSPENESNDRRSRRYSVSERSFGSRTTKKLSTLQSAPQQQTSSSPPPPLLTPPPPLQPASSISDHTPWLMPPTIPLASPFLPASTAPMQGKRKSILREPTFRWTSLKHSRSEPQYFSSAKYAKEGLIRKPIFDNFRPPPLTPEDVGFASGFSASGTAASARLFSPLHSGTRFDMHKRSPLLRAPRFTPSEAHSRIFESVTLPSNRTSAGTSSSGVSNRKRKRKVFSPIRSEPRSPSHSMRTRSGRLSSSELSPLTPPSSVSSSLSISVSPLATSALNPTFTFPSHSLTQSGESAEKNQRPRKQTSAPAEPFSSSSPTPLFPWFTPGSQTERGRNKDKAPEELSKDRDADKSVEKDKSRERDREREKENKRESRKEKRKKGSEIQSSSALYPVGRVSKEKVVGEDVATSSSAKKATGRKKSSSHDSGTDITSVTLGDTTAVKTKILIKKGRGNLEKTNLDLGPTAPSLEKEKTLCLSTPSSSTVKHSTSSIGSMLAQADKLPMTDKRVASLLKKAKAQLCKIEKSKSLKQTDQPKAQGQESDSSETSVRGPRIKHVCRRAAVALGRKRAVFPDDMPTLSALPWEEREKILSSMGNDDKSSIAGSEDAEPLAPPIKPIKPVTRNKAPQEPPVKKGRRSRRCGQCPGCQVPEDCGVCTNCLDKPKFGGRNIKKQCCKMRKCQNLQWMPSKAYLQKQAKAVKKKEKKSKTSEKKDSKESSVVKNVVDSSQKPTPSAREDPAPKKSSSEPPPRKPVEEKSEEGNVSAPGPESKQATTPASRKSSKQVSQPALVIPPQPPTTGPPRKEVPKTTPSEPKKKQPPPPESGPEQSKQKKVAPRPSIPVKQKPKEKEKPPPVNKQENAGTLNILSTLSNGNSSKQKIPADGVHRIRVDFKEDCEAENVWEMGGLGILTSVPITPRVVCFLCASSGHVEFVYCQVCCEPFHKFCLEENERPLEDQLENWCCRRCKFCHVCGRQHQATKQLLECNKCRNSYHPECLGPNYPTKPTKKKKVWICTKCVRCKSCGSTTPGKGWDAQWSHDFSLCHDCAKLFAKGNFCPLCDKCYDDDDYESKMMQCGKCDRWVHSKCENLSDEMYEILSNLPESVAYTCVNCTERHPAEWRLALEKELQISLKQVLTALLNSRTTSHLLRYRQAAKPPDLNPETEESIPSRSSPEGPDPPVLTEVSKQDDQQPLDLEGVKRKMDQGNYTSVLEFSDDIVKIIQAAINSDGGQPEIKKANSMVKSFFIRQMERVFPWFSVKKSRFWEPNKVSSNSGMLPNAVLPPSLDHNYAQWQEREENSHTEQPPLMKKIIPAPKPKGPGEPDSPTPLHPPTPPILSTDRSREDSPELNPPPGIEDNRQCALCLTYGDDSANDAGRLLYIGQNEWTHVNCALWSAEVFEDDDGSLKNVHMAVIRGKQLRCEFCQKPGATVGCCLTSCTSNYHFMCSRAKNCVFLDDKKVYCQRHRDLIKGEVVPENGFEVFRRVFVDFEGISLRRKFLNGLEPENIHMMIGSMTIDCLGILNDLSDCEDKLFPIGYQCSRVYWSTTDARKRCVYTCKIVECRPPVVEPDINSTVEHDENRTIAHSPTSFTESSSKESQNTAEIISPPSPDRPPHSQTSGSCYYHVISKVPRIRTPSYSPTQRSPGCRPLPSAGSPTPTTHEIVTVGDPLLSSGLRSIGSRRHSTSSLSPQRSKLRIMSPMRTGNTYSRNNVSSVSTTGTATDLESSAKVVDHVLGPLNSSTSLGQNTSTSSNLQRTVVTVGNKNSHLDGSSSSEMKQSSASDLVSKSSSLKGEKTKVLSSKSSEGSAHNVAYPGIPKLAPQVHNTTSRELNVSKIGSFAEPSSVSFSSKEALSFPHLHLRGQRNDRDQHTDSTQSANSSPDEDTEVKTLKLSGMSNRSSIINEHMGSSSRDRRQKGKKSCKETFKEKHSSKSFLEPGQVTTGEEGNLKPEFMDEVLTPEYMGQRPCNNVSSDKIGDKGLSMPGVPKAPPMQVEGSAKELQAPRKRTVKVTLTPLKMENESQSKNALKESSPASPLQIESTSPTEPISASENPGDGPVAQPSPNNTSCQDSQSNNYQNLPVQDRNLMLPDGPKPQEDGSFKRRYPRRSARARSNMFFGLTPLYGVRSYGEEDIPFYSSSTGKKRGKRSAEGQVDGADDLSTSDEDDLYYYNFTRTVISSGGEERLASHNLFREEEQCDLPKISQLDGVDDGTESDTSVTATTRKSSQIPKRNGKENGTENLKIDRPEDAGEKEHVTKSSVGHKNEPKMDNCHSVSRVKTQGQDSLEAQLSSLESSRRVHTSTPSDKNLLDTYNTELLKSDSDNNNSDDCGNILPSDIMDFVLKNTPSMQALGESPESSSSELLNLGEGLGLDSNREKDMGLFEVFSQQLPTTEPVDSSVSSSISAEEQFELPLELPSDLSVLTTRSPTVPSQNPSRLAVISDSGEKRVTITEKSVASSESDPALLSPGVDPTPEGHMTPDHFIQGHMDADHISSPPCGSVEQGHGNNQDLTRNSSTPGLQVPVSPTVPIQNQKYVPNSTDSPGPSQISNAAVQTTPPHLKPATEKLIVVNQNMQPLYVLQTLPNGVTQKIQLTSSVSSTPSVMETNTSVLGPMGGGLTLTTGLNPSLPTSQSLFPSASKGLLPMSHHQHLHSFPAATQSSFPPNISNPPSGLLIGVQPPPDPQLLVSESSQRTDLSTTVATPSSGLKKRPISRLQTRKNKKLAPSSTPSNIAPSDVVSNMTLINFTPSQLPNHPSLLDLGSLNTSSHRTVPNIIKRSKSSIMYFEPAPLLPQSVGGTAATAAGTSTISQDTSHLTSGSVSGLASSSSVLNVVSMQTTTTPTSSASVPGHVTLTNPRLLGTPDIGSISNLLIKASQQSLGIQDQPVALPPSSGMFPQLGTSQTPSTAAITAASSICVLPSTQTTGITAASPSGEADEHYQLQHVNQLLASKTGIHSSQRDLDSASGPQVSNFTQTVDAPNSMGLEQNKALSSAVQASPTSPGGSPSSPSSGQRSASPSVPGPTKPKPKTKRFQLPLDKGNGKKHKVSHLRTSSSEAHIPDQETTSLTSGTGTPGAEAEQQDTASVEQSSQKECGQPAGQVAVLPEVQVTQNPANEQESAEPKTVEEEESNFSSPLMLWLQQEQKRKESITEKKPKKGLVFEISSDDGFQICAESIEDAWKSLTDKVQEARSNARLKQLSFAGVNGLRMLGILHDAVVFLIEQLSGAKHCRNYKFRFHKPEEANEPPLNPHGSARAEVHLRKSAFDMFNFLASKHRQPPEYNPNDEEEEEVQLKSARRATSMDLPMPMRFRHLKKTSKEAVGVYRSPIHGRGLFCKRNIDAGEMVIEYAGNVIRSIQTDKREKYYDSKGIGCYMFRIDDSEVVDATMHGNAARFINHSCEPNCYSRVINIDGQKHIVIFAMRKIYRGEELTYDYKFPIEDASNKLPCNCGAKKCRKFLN

Key:
[1] = target: PAX5 (human (endogenous in KIS-1, REH, GM12878, NALM6 and RAJI)) (UniProt Q02548); assay: co-IP; anti-PAX5 (sc-1974) co-IP from KIS-1 + EBF1 nuclear extracts (lysed with Benzonase), with and without doxycycline induction of EBF1 for 48 h; overnight at 4 °C, Dynabeads; Western blot
[2] = target: PAX5 (human (endogenous in KIS-1, REH, GM12878, NALM6 and RAJI)) (UniProt Q02548); assay: co-IP; anti-PAX5 (sc-1974) co-IP from GM12878 nuclear extract; Western blot
[3] = target: PAX5 (human (endogenous in KIS-1, REH, GM12878, NALM6 and RAJI)) (UniProt Q02548); assay: co-IP; anti-PAX5 (sc-1974) co-IP from REH nuclear extract; Western blot

- binding [1]: binds
Molecule: KMT2A, the catalytic component of MLL (from UniProt Q03164 1-3969)

- binding [1]: binds
- binding [2]: binds
- binding [3]: binds
B1: MEN1 (protein, UniProt O00255 1-610)
chain: MGLKAAQKTLFPLRSIDDVVRLFAAELGREEPDLVLLSLVLGFVEHFLAVNRVIPTNVPELTFQPSPAPDPPGGLTYFPVADLSIIAALYARFTAQIRGAVDLSLYPREGGVSSRELVKKVSDVIWNSLSRSYFKDRAHIQSLFSFITGTKLDSSGVAFAVVGACQALGLRDVHLALSEDHAWVVFGPNGEQTAEVTWHGKGNEDRRGQTVNAGVAERSWLYLKGSYMRCDRKMEVAFMVCAINPSIDLHTDSLELLQLQQKLLWLLYDLGHLERYPMALGNLADLEELEPTPGRPDPLTLYHKGIASAKTYYRDEHIYPYMYLAGYHCRNRNVREALQAWADTATVIQDYNYCREDEEIYKEFFEVANDVIPNLLKEAASLLEAGEERPGEQSQGTQSQGSALQDPECFAHLLRFYDGICKWEEGSPTPVLHVGWATFLVQSLGRFEGQVRQKVRIVSREAEAAEAEEPWGEEAREGRRRGPRRESKPEEPPPPKKPALDKGLGTGQGAVSGPPRKPPGTVAGTARGPEGGSTAQVPAPTASPPPEGPVLTFQSEKMKGMKELLVATKINSSAIKLQLTAQSQVQMKKQKVSTPSDYTLSFLKRQRKGL
